# The other results are listed elsewhere or left out. Most values lie at the level of the controls, where differences are scatter.
# By UniProt entry, the sequences of proteins in these tests, tags left out. Where a name states a change or a piece, a line headed by the entry shows the natural chain unless it says otherwise.
# UniProt Q9QZE7: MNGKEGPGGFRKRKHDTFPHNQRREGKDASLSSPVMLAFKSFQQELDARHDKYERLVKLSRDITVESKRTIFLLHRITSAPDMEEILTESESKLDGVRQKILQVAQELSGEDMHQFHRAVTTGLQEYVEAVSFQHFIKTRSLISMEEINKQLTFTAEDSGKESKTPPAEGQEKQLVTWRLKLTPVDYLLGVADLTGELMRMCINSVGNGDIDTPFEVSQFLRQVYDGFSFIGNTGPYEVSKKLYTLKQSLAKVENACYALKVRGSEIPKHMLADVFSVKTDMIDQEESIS
# UniProt Q9R0Y5: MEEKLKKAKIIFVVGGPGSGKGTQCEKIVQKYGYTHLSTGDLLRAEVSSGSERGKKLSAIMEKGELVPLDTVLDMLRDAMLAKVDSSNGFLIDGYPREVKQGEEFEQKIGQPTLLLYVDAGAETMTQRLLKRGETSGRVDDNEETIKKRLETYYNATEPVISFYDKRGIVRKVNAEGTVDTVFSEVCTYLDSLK
# UniProt Q9WTN3: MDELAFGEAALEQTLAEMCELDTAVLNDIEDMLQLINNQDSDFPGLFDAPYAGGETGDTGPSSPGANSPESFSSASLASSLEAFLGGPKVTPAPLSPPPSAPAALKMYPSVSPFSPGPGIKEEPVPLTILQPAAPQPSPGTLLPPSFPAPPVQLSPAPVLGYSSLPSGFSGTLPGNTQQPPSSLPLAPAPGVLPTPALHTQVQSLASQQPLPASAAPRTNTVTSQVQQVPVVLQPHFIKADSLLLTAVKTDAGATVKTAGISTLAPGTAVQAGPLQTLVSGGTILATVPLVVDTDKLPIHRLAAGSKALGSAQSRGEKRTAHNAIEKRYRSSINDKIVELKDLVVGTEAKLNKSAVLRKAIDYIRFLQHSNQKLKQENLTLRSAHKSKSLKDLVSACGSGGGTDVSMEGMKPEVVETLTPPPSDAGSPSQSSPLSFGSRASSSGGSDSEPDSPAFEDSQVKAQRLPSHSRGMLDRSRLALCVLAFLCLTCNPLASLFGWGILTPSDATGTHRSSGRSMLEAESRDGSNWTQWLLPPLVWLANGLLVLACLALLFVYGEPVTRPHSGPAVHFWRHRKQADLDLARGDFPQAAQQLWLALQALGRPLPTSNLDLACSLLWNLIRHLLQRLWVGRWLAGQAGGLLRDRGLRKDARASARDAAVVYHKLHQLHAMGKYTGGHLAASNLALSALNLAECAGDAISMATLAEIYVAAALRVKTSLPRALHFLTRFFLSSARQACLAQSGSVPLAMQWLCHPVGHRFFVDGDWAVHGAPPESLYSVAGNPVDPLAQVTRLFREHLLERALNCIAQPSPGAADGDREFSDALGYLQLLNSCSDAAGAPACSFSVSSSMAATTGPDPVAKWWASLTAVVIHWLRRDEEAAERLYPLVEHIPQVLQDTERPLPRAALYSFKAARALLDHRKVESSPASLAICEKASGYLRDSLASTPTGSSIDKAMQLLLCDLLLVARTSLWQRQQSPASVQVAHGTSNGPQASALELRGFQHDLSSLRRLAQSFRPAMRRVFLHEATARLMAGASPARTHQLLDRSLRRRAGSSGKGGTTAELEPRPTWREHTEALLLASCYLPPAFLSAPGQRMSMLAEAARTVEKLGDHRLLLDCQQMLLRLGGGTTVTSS
# UniProt Q9QXJ4: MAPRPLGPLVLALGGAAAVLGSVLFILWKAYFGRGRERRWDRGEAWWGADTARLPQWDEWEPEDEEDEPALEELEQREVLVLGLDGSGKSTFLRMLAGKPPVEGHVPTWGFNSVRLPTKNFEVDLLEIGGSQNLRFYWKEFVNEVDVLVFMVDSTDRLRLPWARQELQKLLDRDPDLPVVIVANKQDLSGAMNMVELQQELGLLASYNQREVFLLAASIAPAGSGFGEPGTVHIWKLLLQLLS
# UniProt Q9R1S7: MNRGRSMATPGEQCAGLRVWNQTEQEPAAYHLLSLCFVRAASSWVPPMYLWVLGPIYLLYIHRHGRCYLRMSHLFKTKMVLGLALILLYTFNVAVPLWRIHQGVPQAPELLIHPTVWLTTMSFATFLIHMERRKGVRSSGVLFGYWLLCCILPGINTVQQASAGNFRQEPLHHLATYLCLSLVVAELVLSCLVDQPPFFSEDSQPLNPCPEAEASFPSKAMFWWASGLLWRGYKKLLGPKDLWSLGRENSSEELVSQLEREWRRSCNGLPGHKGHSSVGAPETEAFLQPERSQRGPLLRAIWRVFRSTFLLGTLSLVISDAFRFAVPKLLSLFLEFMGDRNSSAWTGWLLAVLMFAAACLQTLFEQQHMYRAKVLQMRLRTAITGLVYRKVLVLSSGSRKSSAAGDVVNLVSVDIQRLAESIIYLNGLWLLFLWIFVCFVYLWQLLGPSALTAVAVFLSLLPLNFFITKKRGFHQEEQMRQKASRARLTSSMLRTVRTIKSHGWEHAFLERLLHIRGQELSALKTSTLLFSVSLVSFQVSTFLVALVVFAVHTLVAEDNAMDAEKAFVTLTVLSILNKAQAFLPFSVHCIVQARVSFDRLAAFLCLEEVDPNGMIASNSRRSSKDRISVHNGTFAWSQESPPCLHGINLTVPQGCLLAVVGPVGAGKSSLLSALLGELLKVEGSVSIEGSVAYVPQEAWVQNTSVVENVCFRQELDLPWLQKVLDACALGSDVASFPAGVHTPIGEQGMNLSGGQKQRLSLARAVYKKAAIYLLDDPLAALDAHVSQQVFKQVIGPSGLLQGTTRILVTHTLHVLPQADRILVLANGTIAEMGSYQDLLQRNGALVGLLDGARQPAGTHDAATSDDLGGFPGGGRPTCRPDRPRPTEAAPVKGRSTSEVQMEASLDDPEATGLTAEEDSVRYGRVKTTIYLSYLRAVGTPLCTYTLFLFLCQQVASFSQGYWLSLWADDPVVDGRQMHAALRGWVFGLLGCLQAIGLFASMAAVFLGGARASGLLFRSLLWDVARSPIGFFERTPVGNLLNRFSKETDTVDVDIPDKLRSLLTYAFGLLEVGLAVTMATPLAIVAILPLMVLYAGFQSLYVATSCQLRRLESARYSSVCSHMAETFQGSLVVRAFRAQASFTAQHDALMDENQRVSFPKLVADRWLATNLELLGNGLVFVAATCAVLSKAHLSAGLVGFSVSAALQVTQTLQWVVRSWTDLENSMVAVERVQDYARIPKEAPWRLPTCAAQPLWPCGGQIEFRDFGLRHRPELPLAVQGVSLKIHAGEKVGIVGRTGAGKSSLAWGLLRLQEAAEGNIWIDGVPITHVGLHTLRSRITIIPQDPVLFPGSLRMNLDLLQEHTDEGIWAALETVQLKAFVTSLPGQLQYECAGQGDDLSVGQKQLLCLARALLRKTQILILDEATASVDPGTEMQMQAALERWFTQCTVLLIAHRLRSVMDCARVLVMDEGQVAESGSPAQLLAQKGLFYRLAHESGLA
# UniProt Q9R0A5: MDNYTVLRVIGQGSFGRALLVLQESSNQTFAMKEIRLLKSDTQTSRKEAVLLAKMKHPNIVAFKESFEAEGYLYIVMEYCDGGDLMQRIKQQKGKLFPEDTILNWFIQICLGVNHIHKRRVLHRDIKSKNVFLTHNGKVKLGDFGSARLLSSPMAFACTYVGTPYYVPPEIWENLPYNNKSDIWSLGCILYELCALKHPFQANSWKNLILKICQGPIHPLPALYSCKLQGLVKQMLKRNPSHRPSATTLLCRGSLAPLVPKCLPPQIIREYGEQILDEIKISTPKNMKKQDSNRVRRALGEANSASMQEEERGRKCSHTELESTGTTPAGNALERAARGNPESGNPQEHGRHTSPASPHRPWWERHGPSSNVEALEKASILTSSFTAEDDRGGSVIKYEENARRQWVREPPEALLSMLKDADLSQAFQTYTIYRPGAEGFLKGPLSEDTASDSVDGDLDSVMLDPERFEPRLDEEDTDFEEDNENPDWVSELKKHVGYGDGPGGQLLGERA
# UniProt Q9R0P3: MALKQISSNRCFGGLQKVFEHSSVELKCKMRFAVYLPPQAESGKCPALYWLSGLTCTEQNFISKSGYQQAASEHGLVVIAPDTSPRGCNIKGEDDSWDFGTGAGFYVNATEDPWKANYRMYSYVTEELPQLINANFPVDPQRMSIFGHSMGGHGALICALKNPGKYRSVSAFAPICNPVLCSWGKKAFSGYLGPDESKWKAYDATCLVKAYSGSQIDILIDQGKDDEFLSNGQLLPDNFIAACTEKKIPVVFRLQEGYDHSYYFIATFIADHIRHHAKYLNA
# UniProt Q9WUM4, whole entry: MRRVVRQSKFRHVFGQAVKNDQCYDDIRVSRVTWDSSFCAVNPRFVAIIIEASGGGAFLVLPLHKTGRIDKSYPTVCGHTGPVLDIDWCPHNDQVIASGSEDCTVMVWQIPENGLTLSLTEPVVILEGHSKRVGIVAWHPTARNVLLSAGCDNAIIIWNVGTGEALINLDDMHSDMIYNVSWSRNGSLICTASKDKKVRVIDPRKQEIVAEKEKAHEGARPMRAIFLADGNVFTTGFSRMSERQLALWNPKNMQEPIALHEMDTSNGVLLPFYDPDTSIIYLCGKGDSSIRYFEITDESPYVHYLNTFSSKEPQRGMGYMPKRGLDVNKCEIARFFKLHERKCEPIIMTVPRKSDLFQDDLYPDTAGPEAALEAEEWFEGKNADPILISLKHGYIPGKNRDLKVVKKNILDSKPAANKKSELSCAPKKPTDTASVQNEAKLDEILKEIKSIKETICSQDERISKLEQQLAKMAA
# UniProt Q9QXM0: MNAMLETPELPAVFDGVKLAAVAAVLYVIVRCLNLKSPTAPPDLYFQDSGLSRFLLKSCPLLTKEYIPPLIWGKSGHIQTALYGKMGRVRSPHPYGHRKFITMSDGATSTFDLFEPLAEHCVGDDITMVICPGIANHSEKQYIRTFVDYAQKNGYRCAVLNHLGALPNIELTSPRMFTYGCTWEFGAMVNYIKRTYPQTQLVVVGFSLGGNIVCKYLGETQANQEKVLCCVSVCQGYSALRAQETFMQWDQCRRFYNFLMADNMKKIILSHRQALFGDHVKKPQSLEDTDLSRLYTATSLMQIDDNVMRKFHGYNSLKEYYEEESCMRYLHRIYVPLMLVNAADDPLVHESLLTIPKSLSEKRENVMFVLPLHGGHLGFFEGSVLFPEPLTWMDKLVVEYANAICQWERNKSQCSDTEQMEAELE
# UniProt Q9WU56: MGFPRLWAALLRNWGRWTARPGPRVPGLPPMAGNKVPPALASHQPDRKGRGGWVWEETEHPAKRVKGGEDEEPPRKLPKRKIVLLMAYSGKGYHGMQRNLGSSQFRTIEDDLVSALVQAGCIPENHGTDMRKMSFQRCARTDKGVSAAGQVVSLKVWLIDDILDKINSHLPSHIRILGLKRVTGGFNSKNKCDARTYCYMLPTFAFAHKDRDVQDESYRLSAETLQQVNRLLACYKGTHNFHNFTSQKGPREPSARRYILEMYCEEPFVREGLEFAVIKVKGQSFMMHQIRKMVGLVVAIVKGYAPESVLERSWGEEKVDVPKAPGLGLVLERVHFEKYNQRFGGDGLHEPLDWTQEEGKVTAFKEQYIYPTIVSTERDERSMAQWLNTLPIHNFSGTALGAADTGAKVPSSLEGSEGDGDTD
# Compound: CN[C@@H]1C[C@H]2O[C@@](C)([C@@H]1OC)n1c3ccccc3c3c4c(c5c6ccccc6n2c5c31)C(=O)NC4 [staurosporine]
# Assay: log2 fold change of tryptic peptide abundance, ligand vs vehicle (limited proteolysis) (log2 ratio); higher = more trypsin-susceptible (destabilized)
# Settings: ligand concentration: 20 uM; sample: mouse liver crude lysate; replicate design: treated separately
row,Target,log2 fold change
1,"UniProt Q9QZE7 (peptide sequence: SFQQELDAR, peptide start residue: 41)",-0.377
2,"UniProt Q9R0Y5 (peptide sequence: RGETSGRVDDNEETIK, peptide start residue: 132)",0.518
3,"UniProt Q9WTN3 (peptide sequence: GGTTAELEPRPTWR, peptide start residue: 1058)",-0.37
4,"UniProt Q9QXJ4 (peptide sequence: MLAGKPPVEGHVPTWGFNSVR, peptide start residue: 95)",0.347
5,"UniProt Q9R1S7 (peptide sequence: TTIYLSYLR, peptide start residue: 927)",0.543
6,"UniProt Q9R0A5 (peptide sequence: GRKCSHTELESTGTTPAGNALER, peptide start residue: 313)",-0.218
7,"UniProt Q9R0P3 (peptide sequence: KAFSGYLGPDESK, peptide start residue: 186)",-0.247
8,"UniProt Q9WUM4 (peptide sequence: SIKETICSQDER, peptide start residue: 450)",-0.378
9,"UniProt Q9QXM0 (peptide sequence: SGHIQTALYGK, peptide start residue: 75)",-0.0221
10,"UniProt Q9WU56 (peptide sequence: FGGDGLHEPLDWTQEEGKVTAFK, peptide start residue: 343)",0.804

# Source: the supplement of paper PMC12819154, “High-throughput peptide-centric local stability assay extends protein–ligand identification to membrane proteins, tissues and bacteria” (Nature Structural & Molecular Biology, 2025)
